The text below walks through data of article PMC7819943, “Rice protein-binding microarrays: a tool to detect cis-acting elements near promoter regions in rice”.

Chains of the proteins cited; added tags and fusions are not shown.
UniProt Q0JBA9, entry or part of it: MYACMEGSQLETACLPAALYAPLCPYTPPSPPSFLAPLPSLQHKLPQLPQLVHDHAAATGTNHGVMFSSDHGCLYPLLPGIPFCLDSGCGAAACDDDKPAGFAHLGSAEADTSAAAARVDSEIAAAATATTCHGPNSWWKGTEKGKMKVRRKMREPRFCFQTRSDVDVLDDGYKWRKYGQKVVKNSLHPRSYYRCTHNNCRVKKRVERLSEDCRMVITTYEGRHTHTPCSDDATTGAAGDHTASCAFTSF

This is one part of the list.

The target in this assay is OsWRKY34 (Oryza sativa, UniProt Q0JBA9 1-250). The assay is described as follows: protein-binding microarray (RPBM); PBS, 2% BSA, 51.3 ng/ul salmon testes DNA, 50 uM zinc acetate, 200 nM TF, 25 C, 1 h; high values mean tight binding. The settings on record: protein: recombinant; tags: N-terminal polyhistidine and DsRed monomer fusion (pET32a); label: CyDye5-dUTP incorporated in the synthesized complementary strand; 3' TTTTT single-stranded linker to array surface; dsDNA, one strand shown. Summed up: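 Ni–NTA purification followed expression in E. coli BL21-CodonPlus of transcription factors fused N-terminally to a polyhistidine tag and DsRed. At 200 nM in PBS with 2% BSA, salmon testes DNA and 50 µM zinc acetate, the protein was incubated for 1 h at 25 °C with a custom Agilent array that had been primer-extended with Cy5-dUTP and blocked with 2% BSA. After washing, the array was read on an Axon 4000B scanner. The binding signal is per-feature fluorescence intensity in arbitrary units.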
“ACCCCGCGCGAGCTGCCGGCCTCCGCGCGCTCAGCCACTACGGAGTCACCTAGTGCAG”: the binding signal was 8180 fluorescence intensity (a.u.). On to “ACAATCACCATGTGGTCTCTGTGTAGCTGTTTTTTTCTCTCGGAGTCACCTAGTGCAG”, for which the binding signal is 10100 fluorescence intensity (a.u.). As for “CAAATTCGAACTTACGTCATCATCATCCATCCACAGACCTCGGAGTCACCTAGTGCAG”, the binding signal is 8730 fluorescence intensity (a.u.). For “TAACTTGGTGCATTCATATTTTGGGTGTGTTTAGTTCACGCGGAGTCACCTAGTGCAG”, the binding signal is 8690 fluorescence intensity (a.u.). As for “CCGTGTGACCATCTGCTGGGTGGGGTCATCTGCCCAAATACGGAGTCACCTAGTGCAG”, the figure is 8550 fluorescence intensity (a.u.); as for “TTTGCGTTTCCGTCTCTCCCTCTCGCGGATTACTGCTCGCCGGAGTCACCTAGTGCAG”, 8150 fluorescence intensity (a.u.). Consider “GATTGTATCAGTAGCGACGCACCCTATTTTTTAGCATTTTCGGAGTCACCTAGTGCAG”, for which the binding signal is 9300 fluorescence intensity (a.u.). On to “CCTTTTGCCTTCGGCCCGGCCCATATATCGCCTCAAATTCCGGAGTCACCTAGTGCAG”, for which the binding signal was 13000 fluorescence intensity (a.u.). On to “TTTTGTATCGCAGCTACTTGTCCACTGTGTTCTATCAAAGCGGAGTCACCTAGTGCAG”, for which the binding signal was 8280 fluorescence intensity (a.u.). In the case of “AAGGAGCAAGTGGAGGAGCAAGGCTTTGTTTTTTGTTTTTCGGAGTCACCTAGTGCAG”, the binding signal is 8140 fluorescence intensity (a.u.).

In the case of “GCAAATCATTATCTCGTCTAAAATTTTCGTTTTTTTAATTCGGAGTCACCTAGTGCAG”, the binding signal was 11200 fluorescence intensity (a.u.). With “TCGCGCTGTTGAACTCGGCCGGCGAGTCCGCGGCTTCCGTCGGAGTCACCTAGTGCAG”, the binding signal is 8640 fluorescence intensity (a.u.). Regarding “CGATAGTGGTGCGGAGCGTCGGGTTGGGGATCAGGTCGTTCGGAGTCACCTAGTGCAG”, the binding signal is 8220 fluorescence intensity (a.u.). “TTGGGGTATATTTGTTCAACTCTATGCTGATTAATTTTTTCGGAGTCACCTAGTGCAG”: the binding signal is 15500 fluorescence intensity (a.u.). The value for “TCCATAGATTCTCCCTGCATTTTGTTCTTGGCAGACTATTCGGAGTCACCTAGTGCAG” was 9300 fluorescence intensity (a.u.).

Regarding “GTATACTGTTCCGTGTTCCCGCGTATGCACTAGTATGTCACGGAGTCACCTAGTGCAG”, the binding signal was 13600 fluorescence intensity (a.u.). Regarding “GGTAGGGTGGGGATGGGGTGTGTGCTAGCAATCCCGGTGGCGGAGTCACCTAGTGCAG”, the binding signal is 11900 fluorescence intensity (a.u.). As for “ACCCGTCGCCTTTCTATTTCCCAATCCTGCGGCCAATCCGCGGAGTCACCTAGTGCAG”, the figure is 11000 fluorescence intensity (a.u.); as for “GGACGAGAACTAAGCAAAGCTCACACGTTTCATTGACGTTCGGAGTCACCTAGTGCAG”, 8060 fluorescence intensity (a.u.). In the case of “ACCATCTGTCCTTGTACTGCGCCCGTAGCATACCACCCCACGGAGTCACCTAGTGCAG”, the binding signal was 11300 fluorescence intensity (a.u.). As for “TCGAGCTCTCACCGCCCCGATGCTCACTCCATCTTGATCACGGAGTCACCTAGTGCAG”, the figure is 8740 fluorescence intensity (a.u.); as for “TCTCTTCCTTGCTGTGGTGGCGGCGGGCGGGAGGGCGGCGCGGAGTCACCTAGTGCAG”, 35000 fluorescence intensity (a.u.).

With “TTTAATATTCTACGTGGTCTAAATTATTCTCTGAAATTTTCGGAGTCACCTAGTGCAG”, the binding signal is 8970 fluorescence intensity (a.u.). Regarding “TCTCCTGACCCTTAGATCTGTTCATCCAACGGTTTATATCCGGAGTCACCTAGTGCAG”, the binding signal is 9300 fluorescence intensity (a.u.). Regarding “TGCATATGGCGAGCACACACAGGCACACAGCCGGAGCCAACGGAGTCACCTAGTGCAG”, the binding signal is 8340 fluorescence intensity (a.u.).

Turning to “GATGACACTGACACCAGATGTTTCTTCTCTCTTTCAAGATCGGAGTCACCTAGTGCAG”, the binding signal is 10400 fluorescence intensity (a.u.). In the case of “ATAACCCGCCACCTCTTCTCTTCTCTTCCCTTCTCTCTTCCGGAGTCACCTAGTGCAG”, the binding signal was 10200 fluorescence intensity (a.u.). Take “TTAAGGGCATGTTTAGTTCTCAAACAAAATTTTCTAGCTGCGGAGTCACCTAGTGCAG”: the binding signal is 8270 fluorescence intensity (a.u.). “ACTGACAGGAGGCGTGGAGTTGTTGAGGTACTACTTTTATCGGAGTCACCTAGTGCAG”: the binding signal is 8710 fluorescence intensity (a.u.). The value for “CATGCATGTTAGCACGTAGGTGGCGTTTGTCTTTTATCAACGGAGTCACCTAGTGCAG” was 9200 fluorescence intensity (a.u.); that for “TTTTTCCTTTGCTTTTTGTCAACCCAGGTGCAATATTCTGCGGAGTCACCTAGTGCAG” was 9080 fluorescence intensity (a.u.); that for “GTTCATCGGACATTGCCATCGTATAGTCCAATTCTCGTGCCGGAGTCACCTAGTGCAG” was 8320 fluorescence intensity (a.u.). With “TTCTCTCCTTTTTACCTGGGGCACTAGTACATACTGTACCCGGAGTCACCTAGTGCAG”, the binding signal is 10200 fluorescence intensity (a.u.). Take “TCAGAAATTCTACCATCCACCGAGGTATTTTTACTTAGATCGGAGTCACCTAGTGCAG”: the binding signal is 9530 fluorescence intensity (a.u.).

Consider “GTCAAGCTCCTCTCCGACGGCCGCTGCTTCTTTCCCCGCTCGGAGTCACCTAGTGCAG”, for which the binding signal is 10400 fluorescence intensity (a.u.). For the sequence “CAATCTCTCGCGTCCCTCTCGCTCTCTTCCCGCTATTCTTCGGAGTCACCTAGTGCAG”, the binding signal is 10000 fluorescence intensity (a.u.). Turning to “TAAGTTACTTTATGTGTTCTGGCTTGGGCCTTCCGTGTGACGGAGTCACCTAGTGCAG”, the binding signal is 8100 fluorescence intensity (a.u.).

In the case of “TCTATGTCTAACTTTGATCGCTTGTCTTATTTGAAGTTTTCGGAGTCACCTAGTGCAG”, the binding signal was 9330 fluorescence intensity (a.u.). For “TACCTCATTCCCTAAATGTTTGACGCCGTTGACTTTTTTACGGAGTCACCTAGTGCAG”, the binding signal is 17500 fluorescence intensity (a.u.). “TGCTTCACACTCACTCAAGCACAAAAATTTTCACCCCATCCGGAGTCACCTAGTGCAG”: the binding signal was 8700 fluorescence intensity (a.u.). “CATTCTAGCATTTCTCACATTCACATTGATATTAATTAATCGGAGTCACCTAGTGCAG”: the binding signal is 8440 fluorescence intensity (a.u.). Turning to “GTTAACTTTTGGTAGTTGCAGGGGTTCTATAGGTGGGCAGCGGAGTCACCTAGTGCAG”, the binding signal was 8640 fluorescence intensity (a.u.). Consider “CCTCCTCGTCATGATCGTCGTGCAGCGGCAGTTCGCCTTCCGGAGTCACCTAGTGCAG”, for which the binding signal was 9180 fluorescence intensity (a.u.). As for “TCATCTTCACTTCAGTCTCAGCTCAAAAACTTTTGACACTCGGAGTCACCTAGTGCAG”, the figure is 9030 fluorescence intensity (a.u.). “TTATCCTCTTGCTCTTGCCTGCCATTGCGCGCCCAGGTTACGGAGTCACCTAGTGCAG”: the binding signal is 10700 fluorescence intensity (a.u.). With “TTCAAATTTTTCCGTCCTCCTTTTGCATGTCCCTGTTTGACGGAGTCACCTAGTGCAG”, the binding signal is 10800 fluorescence intensity (a.u.). Turning to “ATAAATTTTCGTTACCGTATTCACGCCGGTTCGTTTTCACCGGAGTCACCTAGTGCAG”, the binding signal is 10200 fluorescence intensity (a.u.). Take “TCTCCAGCTTTTTTCTGTTCCTCTGGTCTTGATTCTTGAACGGAGTCACCTAGTGCAG”: the binding signal is 18200 fluorescence intensity (a.u.). Take “ACCTGCTTCCTTAATTAACTCCTTTCCGTCCTTTGTACTTCGGAGTCACCTAGTGCAG”: the binding signal was 8370 fluorescence intensity (a.u.). Turning to “AAAACCCAATTAGTCATACATTATTACCACATCGTTTTACCGGAGTCACCTAGTGCAG”, the binding signal was 8340 fluorescence intensity (a.u.). Consider “ATCGGACAATTACCTGGGCTCTATCTATCATCTCTTCTACCGGAGTCACCTAGTGCAG”, for which the binding signal was 13300 fluorescence intensity (a.u.). Regarding “TTCACTTTAGGTCCCTCTACTTGACGCCCAGTCTGATTTTCGGAGTCACCTAGTGCAG”, the binding signal is 8180 fluorescence intensity (a.u.).

For “CTCCACGGCTCCACGGCTCCACGCCTCTTCCACCTCGTCGCGGAGTCACCTAGTGCAG”, the binding signal was 8270 fluorescence intensity (a.u.). As for “ATCATTATCCTCTCACCCTGTGTCACTCTCTCGTTCTTTCCGGAGTCACCTAGTGCAG”, the figure is 10000 fluorescence intensity (a.u.).
